Two compounds from patent US4121009A, “Anti-static fabric softening compositions and processes for drying and softening textiles therewith” (priority 1976, dated 1978) can be followed below.

Each structure is given as a SMILES string.

Data set [1] is described as follows: Rusting or rust inhibitory properties by VCS color (Example 60). The following applies: 1% solids in water; for VCS Color, Final (B): 96 hours exposure to coupons; for Extent of Rusting (B-A): 96 hours, VCS color difference.
Data set [2] in a line: Soil release of padded dacron-cotton permanent press swatches (Examples 44-52). The following applies: 1-worst, 4-best.
Data set [3] in a line: Softness of padded terry cotton swatches, paired comparison by panel of 10 judges (Example 28). The following applies: about 0.1% active add-on.

Regarding `CCCCCCCCCCCCCCCCCC[N+](C)(C)CCCCCCCCCCCCCCCCCC` [Dimethyl distearyl ammonium methosulfate, dimethyl distearylammonium methosulfate], in data set [1], the “VCS Color, Initial (A)” value turned out to be 3.0; the “VCS Color, Final (B)” value stood at 6.5; the “Extent of Rusting (B-A)” value is on record as 3.5.

`CCCCCCCCCCCCCCCCCC[N+](C)(C)CCCCCCCCCCCCCCCCCC.[Cl-]` [Distearyl dimethyl ammonium chloride, dimethyldistearylammonium chloride]: in data set [2] (W-P-S-W), the “Soil Release Score, MO (Mineral Oil)” value came out at 1 and the “Soil Release Score, VO (Vegetable Oil)” value is 1. Further, in data set [2] (W-P-W-S-W), the “Soil Release Score, MO (Mineral Oil)” value turned out to be 1 and the “Soil Release Score, VO (Vegetable Oil)” value is given as 1. The “softness versus untreated control swatches” value in data set [3] was “much superior to the softness of untreated control swatches”. For the same compound, in data set [1], the “VCS Color, Initial (A)” value came out at 3.0; the “VCS Color, Final (B)” value was 7.0; the “Extent of Rusting (B-A)” value is given as 4.0.
